The list shows a part of the results. The main result of the screen is listed elsewhere. These columns were measured beside it and carry no call. Compounds called inactive in the main read-out are mostly missing here. The note in brackets gives the kind of curve behind each potency; many fits are weak.
Assay: qHTS Assay to Find Inhibitors of Chronic Active B-Cell Receptor Signaling
Details: ABC-DLBCL IkBa-CBG/CBR reporter, luminescence ratio (green luciferase fused to IkBa over red control in TMD8 lymphoma cells), 4 h
Procedure, shortened: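 Concentration-response series (up to 46 uM) were applied to TMD8 dual-reporter cells for 4 h at 37C with doxycycline. Green/red ratio, after filter-overlap correction, defined %Activity; red signal alone was normalised to basal cells and zero luminescence.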

[1] = measured here: CBR red luminescence, cell number
[2] = measured here: IkBa-CBG green luminescence

Row | Compound | AC50 [1] | AC50 [2]
1 | CN(C)CCN(C(=O)/C=C/c1cccs1)c1nc2ccc(F)cc2s1 | 8.2 µM [falling, partial curve] | –
2 | CCOc1cc(C)c(Cl)cc1S(=O)(=O)NCc1ccc2c(c1)OCO2 | 35.5 µM [falling, single point] | –
3 | Cc1cc2nnc(SCC(=O)N3CCCCCC3)n2c(N)n1 | 5.62 µM [falling, full curve, poor fit] | –
4 | Cc1cc(C)c2ccc(N)nc2c1O | 14.6 µM [rising, partial curve, poor fit] | –
5 | COC(=O)CNC(=O)c1cc(-c2ccncc2)nc2c(C)c(Cl)ccc12 | 12.6 µM [falling, partial curve, poor fit] | –
6 | CCC(C)c1ccc(NC(=S)NCCn2cc(Br)cn2)cc1 (stereo not drawn) | 12.6 µM [rising, partial curve, poor fit] | –
7 | CCc1nnc(NC(=O)c2ccc3ncsc3c2)s1 | 15.8 µM [falling, single point] | –
8 | Cc1cc2cc(CN(Cc3ccc4c(c3)OCO4)C(=O)c3ccco3)c(=O)[nH]c2cc1C | 12.6 µM [falling, single point] | –
9 | CCCN(CCC)c1nc(NC2CCN(C(=O)OCC)CC2)nc(OC)n1 | 35.5 µM [falling, single point] | –
10 | Cc1ccc(CN2CCN(Cc3cn(C(C)C)c4ccccc34)CC2CCO)o1 (stereo not drawn) | 6.31 µM [falling, partial curve, poor fit] | –
11 | COc1ccccc1C(=O)Nc1ccc2nc3n(c(=O)c2c1)CCCC3 | 11.2 µM [falling, partial curve, poor fit] | –
12 | O=C1C2C3C=CC(O3)C2C(=O)N1CC(O)c1ccccc1 (stereo not drawn) | 0.103 µM [rising, full curve, poor fit] | –
13 | CC1=NN(Cc2cc(C(C)(C)C)c(O)c(C(C)(C)C)c2)C(=O)C1 | 28.2 µM [falling, single point] | –
14 | Cc1[nH]n(-c2ccccc2)c(=O)c1C=NC1CCCCCC1 | 22.4 µM [falling, single point] | –
15 | CCc1cc(=O)n2c([nH]c3ccccc32)c1C#N | 0.92 µM [falling, full curve] | –
16 | COc1cc(N=c2oc3c(C)ncc(CO)c3cc2C(N)=O)cc(OC)c1OC | 3.55 µM [falling, full curve] | –
17 | COC(=O)c1ccc(Cl)c(NC(=O)CSc2ncn[nH]2)c1 | 23.1 µM [falling, single point] | –
18 | Clc1ccccc1-c1nnc2sc(-c3ccccn3)nn12 | 0.00461 µM [rising, full curve, poor fit] | –
19 | O=C(NCc1cccs1)C(=O)NCC1OCCCN1S(=O)(=O)c1cccs1 (stereo not drawn) | 35.5 µM [rising, single point] | –
20 | CCc1ccc(S(=O)(=O)ON2C(=O)c3ccccc3C2=O)cc1 | 11.2 µM [falling, partial curve] | –
21 | C=C(C)C(=O)Nc1ccc(OC(F)(F)C(F)F)c(NC(=O)C(=C)C)c1 | 0.112 µM [falling, full curve, poor fit] | –

Looked up one by one from the entries so far (two):
Row | Compound | AC50 [1] | AC50 [2]
4 | Cc1cc(C)c2ccc(N)nc2c1O | 14.6 µM [rising, partial curve, poor fit] | –
10 | Cc1ccc(CN2CCN(Cc3cn(C(C)C)c4ccccc34)CC2CCO)o1 (stereo not drawn) | 6.31 µM [falling, partial curve, poor fit] | –

Next part.

Row | Compound | AC50 [1] | AC50 [2]
22 | C/C(=N\NC(=O)CO/N=C(\C)c1cccs1)c1ccc(N)cc1 | 35.5 µM [falling, single point] | –
23 | C=CCNC(=O)c1onc(CSc2cc(C)cc(C)c2)c1C(=O)NCC=C | 35.5 µM [falling, single point] | –
24 | Cc1csc(SCC(=O)Nc2ccc3c(c2)OCCO3)n1 | 20 µM [falling, partial curve, poor fit] | –
25 | NNc1nc2c(Cl)ccc(Cl)c2s1 | 5.17 µM [falling, partial curve] | 23.1 µM [rising, partial curve, poor fit]
26 | Cc1cc(C(=O)NN)c2cc(Br)ccc2n1 | 10.3 µM [rising, partial curve] | 7.31 µM [falling, partial curve]
27 | Cc1ccc(S(=O)(=O)N2CCN(Cc3cc(=O)n4ccccc4n3)CC2)c(C)c1 | 3.66 µM [rising, partial curve, poor fit] | –
28 | O=C(CSc1nnc(-c2ccccc2Br)o1)Nc1cccc2ccccc12 | 0.231 µM [falling, full curve] | –
29 | CCC/C(=N/NC(=O)c1ccc2c(c1)OCO2)c1cccs1 | 18.4 µM [falling, partial curve] | –
30 | CC(C)(C)OC(=O)N1CCN(c2ccc(CNC(=O)c3ccc(Cl)cc3)cc2)CC1 | 20 µM [falling, partial curve, poor fit] | –
31 | CC(C)NC(=O)C(=O)NNC(=O)CCc1ccccc1 | 35.5 µM [rising, single point] | –
32 | CC1=CCC[C@@H]2[C@@](C)(CC/C(C)=C/C(=O)O)[C@H](C)CC[C@@]12C | 20.6 µM [rising, single point] | –
33 | C=CCNc1nc(SC)nc2ccsc12 | 0.731 µM [rising, full curve, poor fit] | –
34 | Cc1ccc(CSCCNC(=O)CSCc2ccc([N+](=O)[O-])cc2)cc1 | 8.2 µM [falling, partial curve, poor fit] | –
35 | COc1cccc(C(=O)COc2cccc(NC(=O)c3cccc([N+](=O)[O-])c3)c2)c1 | 11.2 µM [falling, partial curve] | –
36 | Cc1cc(=O)oc(C)c1C(=O)Nc1ccc2nsnc2c1 | 0.411 µM [falling, partial curve, poor fit] | –
37 | CC(C)CCc1c(O)nc(SCC(C)C)[nH]c1=O | 2.24 µM [rising, partial curve, poor fit] | –
38 | Cc1cc(C)n2nc(C(=O)OCC(=O)Nc3ccc4c(c3)OC(F)(F)O4)nc2n1 | 32.6 µM [falling, single point] | –
39 | CCOc1cc(/C=N/NC(=O)c2ccc(N(C)S(=O)(=O)c3ccccc3)cc2)ccc1OC | 35.5 µM [falling, single point] | –
40 | N/C(=N\c1nc2ccccc2o1)NC(=O)c1ccccc1NC(=O)c1ccccc1 | 5.17 µM [falling, partial curve, poor fit] | –
41 | CCCCOP(=O)(c1ccc(N(C)C)cc1)C(O)c1ccccc1F (stereo not drawn) | 0.0891 µM [falling, full curve, poor fit] | –

Reference: PubChem BioAssay AID493014 (National Center for Advancing Translational Sciences (NCATS), 2011)
